In publication PMC6073362:
Results are given in words; binding and its absence hold for the method and conditions named. For some of these results: A result given as binding can be weak or reduced; the word gives no strength. Sequences can lack the tags named with a protein. Values belong to the molecule of their own block, whether it stands above or below them.

Tests used:
[1] = biological target: T1, MBP–GW2 (rice (Oryza sativa L.)) (UniProt B9F4Q9); experiment: pull-down; 2 µg MBP–GW2 and 2 µg GST–EXPLA1, 25 °C for 2 h in 50 mM Tris-HCl (pH 7.5), 100 mM NaCl, 1% Triton X-100, 0.2% glycerol, 0.5 mM β-mercaptoethanol; pulled down with amylose resin; GST–EXPLA1 detected with an anti-GST antibody; both purified
T1 sequence: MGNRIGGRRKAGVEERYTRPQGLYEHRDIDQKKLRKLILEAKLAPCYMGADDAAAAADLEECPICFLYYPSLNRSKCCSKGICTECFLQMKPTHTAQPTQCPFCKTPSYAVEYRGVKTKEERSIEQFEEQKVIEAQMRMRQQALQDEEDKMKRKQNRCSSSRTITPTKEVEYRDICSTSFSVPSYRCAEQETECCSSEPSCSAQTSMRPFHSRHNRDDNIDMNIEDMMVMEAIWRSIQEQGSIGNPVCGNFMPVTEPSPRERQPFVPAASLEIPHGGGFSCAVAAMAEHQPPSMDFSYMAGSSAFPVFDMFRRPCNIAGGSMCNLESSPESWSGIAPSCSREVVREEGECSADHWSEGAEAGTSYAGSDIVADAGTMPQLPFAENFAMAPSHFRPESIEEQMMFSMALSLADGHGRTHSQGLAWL

[2] = biological target: EXPLA4 (Gal4 BD fusion); experiment: two-hybrid; AD-GW2 (pGAD424) and BD fusions (pGBT8) co-transformed into yeast AH109; selected on -Leu/-Trp, growth tested on -Leu/-Trp/-His with 5 mM 3-AT
[3] = biological target: BD-EXPLA1 (rice (Oryza sativa L.)); experiment: as above
[4] = biological target: EXPLA3 (Gal4 BD fusion); experiment: as above

binding [1]: binds
Molecule: GST–EXPLA1 (rice (Oryza sativa L.))

binding [2]: no binding | binding [3]: binds | binding [4]: no binding
B1: AD-GW2 (enzyme, UniProt B9F4Q9 1-425)
chain: T1 sequence
